The campaign covered roughly 390,000 compounds. About 4,000 (1%) were called active. This list was built around the results that the source calls inconclusive (neither active nor inactive); the mix of calls is not that of the screen. Calls follow the shape of the dose curve; as a rule, active = well fitted inhibition curve with a large enough effect; inconclusive = small, poorly fitted or top-dose-only effect, or another doubt; inactive = no such curve, though single readings can be large or run the other way. A potency beside an inconclusive call is a rough fit, not a confirmed value.
molecular target: DNA polymerase iota (Homo sapiens) (UniProt Q9UNA4); test: qHTS for Inhibitors of Polymerase Iota; details: Pol iota fluorescent replication assay, 10 min; series mostly up to 115 µM
Outline: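 Pol iota at 10 nM preincubated 15 min with compounds at room temperature; reaction started with fluorescent substrate, 50 nM final. Fluorescence read kinetically at 0 and 10 min; buffer-only wells as negative control.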
Potency is read from the fitted curve at half-maximal effect.

Protein sequences, listed by entry. Tags and fused reporters are not part of them. Lines headed by an entry give the natural chain unless they say otherwise; changes in a name come on top.
UniProt Q9UNA4: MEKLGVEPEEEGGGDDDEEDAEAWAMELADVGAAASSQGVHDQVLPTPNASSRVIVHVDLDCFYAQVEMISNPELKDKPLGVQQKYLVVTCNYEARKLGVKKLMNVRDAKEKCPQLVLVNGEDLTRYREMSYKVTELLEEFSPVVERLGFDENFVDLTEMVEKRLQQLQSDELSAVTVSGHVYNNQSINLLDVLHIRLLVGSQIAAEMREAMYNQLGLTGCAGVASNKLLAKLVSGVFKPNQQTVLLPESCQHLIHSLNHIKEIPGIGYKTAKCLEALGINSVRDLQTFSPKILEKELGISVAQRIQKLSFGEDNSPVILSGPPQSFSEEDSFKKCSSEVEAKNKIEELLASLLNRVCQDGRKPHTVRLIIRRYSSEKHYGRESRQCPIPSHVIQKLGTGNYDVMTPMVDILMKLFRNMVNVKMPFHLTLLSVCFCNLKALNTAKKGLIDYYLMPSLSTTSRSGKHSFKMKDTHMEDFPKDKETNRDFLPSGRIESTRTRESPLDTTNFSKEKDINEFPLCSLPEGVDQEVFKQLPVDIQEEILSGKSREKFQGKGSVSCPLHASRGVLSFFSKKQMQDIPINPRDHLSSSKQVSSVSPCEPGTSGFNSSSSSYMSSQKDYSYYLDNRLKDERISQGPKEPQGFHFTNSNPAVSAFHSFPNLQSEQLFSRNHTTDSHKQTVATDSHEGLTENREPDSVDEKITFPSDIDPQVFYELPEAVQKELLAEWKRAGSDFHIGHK

SMILES | Potency
O=C(O)c1cc(S(=O)(=O)Nc2ccc3oc(=O)sc3c2)ccc1O | inconclusive: 2.51 µM [inhibitor, full curve, poor fit]
COc1ccc(-c2csc(C(C#N)=C(O)CSc3nccn3C)n2)cc1OC | active: 14.1 µM
CC(=O)c1sc(N/N=C\c2c(O)ccc3ccccc23)nc1C | inconclusive: 14.1 µM [inhibitor, single point]
COCCNc1nc(-c2ccccc2)nc2c1oc1ccccc12 | inconclusive: 39.8 µM [inhibitor, single point]
Cc1ccc(N(CC(=O)Nc2ccc3c(c2)OCCO3)S(=O)(=O)c2c(C)noc2C)cc1 | inconclusive: 11.2 µM [inhibitor, partial curve, poor fit]
CC1(NC(=O)c2ccccc2)CCN(CCc2cccs2)C1=O (stereo unspecified) | inconclusive: 11.2 µM [inhibitor, partial curve, poor fit]
O=C(NCCC1=CCCCC1)C1CCN(c2nnc(-n3cccc3)s2)CC1 | inconclusive: 35.5 µM [inhibitor, full curve, poor fit]
CNC1=C(N(C(C)=O)c2ccc(Br)cc2)C(=O)c2ccccc2C1=O | inconclusive: 63.1 µM [inhibitor, partial curve, poor fit]
CCc1ccc(S(=O)(=O)NCc2nc3cccnc3n2Cc2ccccc2Cl)cc1 | inconclusive: 89.1 µM [inhibitor, partial curve, poor fit]
CCCOc1ccc(CNC(=O)Cn2cc3c(n2)-c2c(oc(C(=O)N4CCOCC4)c2C)CC3)cc1 | inactive
CC(C)C(C(=O)NC1CCCC1)N(CC1CCCO1)C(=O)CNS(=O)(=O)c1ccccc1 (stereo unspecified) | inactive
CCOc1ccc(CNC(=O)c2cc3c(s2)-c2ccccc2OC3)cc1 | inconclusive: 89.1 µM [inhibitor, partial curve]
CCc1nc2ccc(C(=O)Nc3ccc(NC(C)=O)cc3)cc2nc1CC | inactive
COc1cccc(-c2nn(C)c3sc(C(=O)N4CCN(c5ccccc5)CC4)cc23)c1 | inconclusive: 2.82 µM [inhibitor, single point]
COc1ccccc1Nc1cc(C)nc(Nc2ccccc2OC)n1 | inconclusive: 50.1 µM [inhibitor, partial curve, poor fit]
Cc1ccc(NC(=O)Nn2cnnc2)cc1 | inconclusive: 79.4 µM [inhibitor, single point]
CCOC(=O)c1cnc2cc(C)ccn2c1=O | inconclusive: 89.1 µM [inhibitor, single point]
C=C(C)C(=O)Nc1cccc(C2=NOC3(C2)C[C@@H](C(N)=O)N(C(=O)/C(C)=C/C)C3)c1 (stereo partly specified) | active: 35.5 µM
CCCCCCSc1cc(-c2nc3cnccn3c2NCCCC)ccc1OC | inconclusive: 17.8 µM [inhibitor, single point]
CCOc1ccc(-n2c(=O)c3c4c(sc3n(CC(=O)NC(C)CC)c2=O)CCC4)cc1 (stereo unspecified) | inactive
O=C(NNC(=O)C1CCC(C(=O)NNC(=O)c2cccs2)CC1)c1cccs1 (stereo unspecified) | inconclusive: 100 µM [inhibitor, single point]

Three structures from above, ordered by molar mass, ascending.
SMILES | Potency
O=C(NCCC1=CCCCC1)C1CCN(c2nnc(-n3cccc3)s2)CC1 | inconclusive: 35.5 µM [inhibitor, full curve, poor fit]
COc1ccc(-c2csc(C(C#N)=C(O)CSc3nccn3C)n2)cc1OC | active: 14.1 µM
CC(C)C(C(=O)NC1CCCC1)N(CC1CCCO1)C(=O)CNS(=O)(=O)c1ccccc1 (stereo unspecified) | inactive

The listing continues.

SMILES | Potency
Cc1cccc(NC(=S)N/N=C/c2ccc([N+](=O)[O-])s2)c1 | inconclusive: 100 µM [inhibitor, single point]
O=C(O)CCn1c(SCCOc2ccccc2F)nc2ccccc21 | inconclusive: 0.316 µM [inhibitor, full curve, poor fit]
O=C(Cc1ccc(Cl)cc1)Nc1ccc(C(=O)N2CCOCC2)cc1 | inconclusive: 17.8 µM [inhibitor, partial curve, poor fit]
COC(=O)C[C@H]1c2cc(F)ccc2S(=O)(=O)N1C1CC1 | inactive
Cc1ccn2c(Nc3c(C)cccc3C)c(-c3ccc(Cl)s3)nc2c1 | inactive
CSc1nc2ccc(Nc3nc(N4CCOCC4)nc(N4CCOCC4)n3)cc2s1 | inconclusive: 4.47 µM [inhibitor, partial curve, poor fit]
CC(C(=O)Nc1ccc(O)cc1C(=O)O)N1C(=O)/C(=C\c2cccs2)SC1=S (stereo unspecified) | inconclusive: 15.8 µM [inhibitor, full curve, poor fit]
COc1cccc2c(C)c(C(=O)O)[nH]c12 | inconclusive: 35.5 µM [inhibitor, partial curve, poor fit]
COc1ccccc1CNC(=O)CCS(=O)(=O)c1ccc2c(c1)CC(C)N2C(=O)C1CC1 (stereo unspecified) | inactive
COc1cc(OC)cc(C(=O)N[C@H](C(=O)Nc2nc3c(s2)CCCC3)C(C)C)c1 | inconclusive: 100 µM [inhibitor, single point]
O=C(/C=C/c1ccccc1)Nc1cccc(C(=O)NCCc2ccccc2)c1 | inconclusive: 100 µM [inhibitor, single point]
O=C(Cc1ccc2c(c1)OCCO2)c1c(O)cc(O)cc1O | inconclusive: 12.6 µM [inhibitor, full curve, poor fit]
O=C(Nc1nnc(SCCN2CCOCC2)s1)C1CC(=O)N(c2ccc(F)cc2)C1 (stereo unspecified) | inconclusive: 31.6 µM [inhibitor, partial curve]
CCOC(=O)N/N=C/c1ccc(F)cc1F | inconclusive: 89.1 µM [inhibitor, single point]
COCCN(C(=O)COC(=O)Cc1coc2cc(C)ccc12)c1c(N)n(Cc2ccccc2)c(=O)[nH]c1=O | active: 35.5 µM
CCC1CCCCN1C(=O)c1cccc(S(=O)(=O)Nc2cc(C(F)(F)F)ccc2Cl)c1 (stereo unspecified) | inconclusive: 89.1 µM [inhibitor, single point]
O=c1oc2ccc(F)cc2cc1-c1nc(-c2cccs2)no1 | inconclusive: 31.6 µM [inhibitor, single point]
CC(C)CCNC(=O)NC(=O)COC(=O)/C=C/c1cccc([N+](=O)[O-])c1 | inactive
COCCOCC(O)CN1CCN(c2ccc(C)cc2)CC1 (stereo unspecified) | inconclusive: 28.2 µM [inhibitor, single point]
Cc1cc(C)c2nc(-c3ccccn3)cc(C(=O)NCc3ccco3)c2c1 | inconclusive: 112 µM [inhibitor, partial curve, poor fit]

Source: PubChem BioAssay AID588590 (National Center for Advancing Translational Sciences (NCATS), 2011)
